Results taken from article PMC10614677.
Results are given in words; binding and its absence hold for the method and conditions named. In cells and extracts the contact can be indirect. Binding calls can cover weak binding; strength is not graded here. For part of these data: Tags and fused reporters may be left off the sequences shown.

By UniProt entry, the sequences of proteins in these tests, tags left out. Where a name states a change or a piece, a line headed by the entry shows the natural chain unless it says otherwise.
UniProt P61957: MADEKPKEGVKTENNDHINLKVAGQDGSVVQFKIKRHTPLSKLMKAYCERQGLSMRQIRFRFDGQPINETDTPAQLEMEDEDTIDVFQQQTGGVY

How the values were obtained:
[1] = biological target: T1, HA-ANXA1 (UniProt P10107); assay: co-IP; HA-ANXA1 and His-SUMO2, in the cytoplasm; OGD/R with or without Tat-NTS peptide; antibody overnight at 4 °C, Protein A+G agarose, immunoblot
T1 sequence: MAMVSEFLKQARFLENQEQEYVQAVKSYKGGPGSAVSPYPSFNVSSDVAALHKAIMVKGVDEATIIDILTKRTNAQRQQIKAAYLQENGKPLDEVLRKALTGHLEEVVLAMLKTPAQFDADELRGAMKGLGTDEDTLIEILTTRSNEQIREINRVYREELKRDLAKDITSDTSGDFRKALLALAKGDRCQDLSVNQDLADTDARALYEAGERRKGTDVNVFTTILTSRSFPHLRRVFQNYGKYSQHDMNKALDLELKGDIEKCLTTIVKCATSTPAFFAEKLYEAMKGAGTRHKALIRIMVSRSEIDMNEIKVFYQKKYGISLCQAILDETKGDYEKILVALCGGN

[2] = biological target: T2, Annexin-A1 (endogenous, mouse microglia) (mouse (endogenous in primary microglia and in MCAO/R mice)) (UniProt P10107); assay: co-IP; endogenous proteins, OGD/R-treated primary microglia with Tat-NTS peptide; antibody overnight at 4 °C, Protein A+G agarose, immunoblot
T2 sequence: T1 sequence

[3] = biological target: T2, Annexin-A1 (endogenous, mouse microglia) (mouse (endogenous in primary microglia and in MCAO/R mice)); assay: co-IP; endogenous proteins from MCAO/R mice treated with Tat-NTS or Tat-Scr peptide; IP and immunoblot

| Substance | binding [1] | binding [2] | binding [3] |
| --- | --- | --- | --- |
| His-SUMO2 (from UniProt P61957) | binds | – | – |
| SUMO2 (endogenous, mouse microglia) (from UniProt P61957) | – | binds | binds |
